The assay relates to RAW 264.7. Put plainly: HMGB1-induced TNF-alpha production relative to HMGB1-stimulated control; higher = more TNF-alpha secretion (less inhibition). Conditions: stimulus: HMGB1 5 ug/ml, 18 h.
Where [1] appears, read: compound concentration: 1 ug/ml.

Counter-ions that a name gives are not always drawn. ± gives the standard deviation of the averaged measurements. The list shows a part of the results. Most values come without repeats; read them as rough.

We go through 40 compounds from the supplement of paper PMC3682954.

As to `COC(=O)[C@H]1[C@H]2C[C@H]3c4[nH]c5ccccc5c4CCN3C[C@@H]2CC[C@@H]1O` [Corynanthine hydrochloride], the “HMGB1-induced TNF-alpha production” value under setting [1] worked out at 60.9%.

On to `COC(=O)[C@H]1[C@H]2C[C@H]3c4[nH]c5ccccc5c4CCN3C[C@@H]2CC[C@@H]1O` [Corynanthine], for which the “HMGB1-induced TNF-alpha production” value under setting [1] is 77.1%.

Regarding `CC(=O)Nc1ccccc1`, the “HMGB1-induced TNF-alpha production” value (compound concentration: 3 uM) was 87.7%.

With `C[N+]1(C)[C@@H]2C[C@@H](OC(=O)C(O)(c3cccs3)c3cccs3)C[C@H]1[C@@H]1O[C@@H]12` [Tiotropium Bromide], the “HMGB1-induced TNF-alpha production” value (compound concentration: 3 uM) stood at 80.4%.

Turning to `CSc1ccc2c(c1)C(N1CCN(C)CC1)Cc1ccccc1S2` (stereo not given) [Methiothepin], the “HMGB1-induced TNF-alpha production” value (compound concentration: 3 uM) turned out to be 113%.

In the case of `CSc1ccc2c(c1)C(N1CCN(C)CC1)Cc1ccccc1S2` (stereo not given) [Methiothepin mesylate], the “HMGB1-induced TNF-alpha production” value (compound concentration: 3 uM) was determined as 97.9%.

Regarding `CSc1ccc2c(c1)C(N1CCN(C)CC1)Cc1ccccc1S2` (stereo not given) [Methiothepin maleate], the “HMGB1-induced TNF-alpha production” value (compound concentration: 3 uM) came out at 72.2%.

On to `CSc1ccc2c(c1)C(N1CCN(C)CC1)Cc1ccccc1S2` (stereo not given), for which the “HMGB1-induced TNF-alpha production” value (compound concentration: 3 uM) was 76.3%.

As for `CC(C)(C)C(=O)Oc1ccc(S(=O)(=O)Nc2ccccc2C(=O)NCC(=O)O)cc1` [Sivelestat sodium salt hydrate], the “HMGB1-induced TNF-alpha production” value (compound concentration: 3 uM) is 115%.

As for `C[C@H]1COc2c(C3(N)CC3)c(F)cc3c(=O)c(C(=O)O)cn1c23` [Pazufloxacin], the “HMGB1-induced TNF-alpha production” value (compound concentration: 3 uM) was found to be 74.3%.

For the compound `C[C@H]1COc2c(C3(N)CC3)c(F)cc3c(=O)c(C(=O)O)cn1c23`, the “HMGB1-induced TNF-alpha production” value (compound concentration: 3 uM) worked out at 92.9%.

On to `CC(C(=O)O)c1ccc2c(c1)Cc1cccnc1O2` (stereo not given) [Pranoprofen], for which the “HMGB1-induced TNF-alpha production” value (compound concentration: 3 uM) came out at 107 ± 8.4%.

For `CCCCCCC[N+](CC)(CC)CCCCc1ccc(Cl)cc1` [Clofilium tosylate], the “HMGB1-induced TNF-alpha production” value (compound concentration: 3 uM) turned out to be 81.8%.

Consider `CNCCCC1c2ccccc2C=Cc2ccccc21` [Protriptyline hydrochloride], for which, for the setting “compound concentration: 3 uM”, the “HMGB1-induced TNF-alpha production” value stood at 100 ± 6%.

As for `CNCCCC1c2ccccc2C=Cc2ccccc21`, the “HMGB1-induced TNF-alpha production” value (compound concentration: 3 uM) is 70.7%.

As for `CCOC(=O)C1=C[C@@H](OC(CC)CC)[C@H](NC(C)=O)[C@@H](N)C1` [Oseltamivir], the “HMGB1-induced TNF-alpha production” value (compound concentration: 3 uM) was found to be 83.3%.

For the compound `C[C@]12CCC(=O)C=C1CC[C@@H]1[C@@H]2[C@@H](O)C[C@@]2(C)[C@H]1CC[C@]2(O)C(=O)CO` [Hydrocortisone], for the setting “compound concentration: 3 uM”, the “HMGB1-induced TNF-alpha production” value came out at 53.4 ± 21%.

For the compound `C[C@]12CCC(=O)C=C1CC[C@@H]1[C@@H]2[C@@H](O)C[C@@]2(C)[C@H]1CC[C@]2(O)C(=O)CO`, the “HMGB1-induced TNF-alpha production” value (compound concentration: 3 uM) stood at 40.2%.

Take `C[C@]12CCC(=O)C=C1CC[C@@H]1[C@@H]2[C@@H](O)C[C@@]2(C)[C@H]1CC[C@]2(O)C(=O)CO` [Hydrocortisone, 98%]: the “HMGB1-induced TNF-alpha production” value under setting [1] was determined as 56.6%.

For `C[C@]12CCC(=O)C=C1CC[C@@H]1[C@@H]2[C@@H](O)C[C@@]2(C)[C@H]1CC[C@]2(O)C(=O)CO` [Hydrocortisone base], the “HMGB1-induced TNF-alpha production” value (compound concentration: 3 uM) came to 28.9%.

As for `CC(=O)C1=C(O)C=C2Oc3c(C(C)=O)c(O)c(C)c(O)c3[C@@]2(C)C1=O` [(+)-Usnic acid], under setting [1], the “HMGB1-induced TNF-alpha production” value is 71.6%.

With `O=C(CCc1ccc(O)cc1)c1c(O)cc(O)cc1O[C@@H]1O[C@H](CO)[C@@H](O)[C@H](O)[C@H]1O` [Phloridzin dihydrate], under setting [1], the “HMGB1-induced TNF-alpha production” value was 59%.

With `S=C(S)OC1CC2CC1C1CCCC21` [D-609 potassium], the “HMGB1-induced TNF-alpha production” value (compound concentration: 3 uM) was determined as 104%.

Consider `O=c1cc(-c2ccccc2F)[nH]c2cc3c(cc12)OCO3` [CHM-1 hydrate], for which the “HMGB1-induced TNF-alpha production” value (compound concentration: 3 uM) is 129%.

Take `Oc1ncnc2[nH]ncc12`: the “HMGB1-induced TNF-alpha production” value (compound concentration: 3 uM) came to 98.2%.

On to `Oc1ncnc2[nH]ncc12` [Allopurinol], for which, for the setting “compound concentration: 3 uM”, the “HMGB1-induced TNF-alpha production” value was determined as 101 ± 9.4%.

`O=[N+]([O-])c1ccc(-c2nc(-c3ccc(F)cc3)c(-c3ccncc3)[nH]2)cc1`: the “HMGB1-induced TNF-alpha production” value (compound concentration: 3 uM) is 71.2%.

Turning to `Cc1sc(N)c(C(=O)c2cccc(C(F)(F)F)c2)c1C`, the “HMGB1-induced TNF-alpha production” value (compound concentration: 3 uM) is 99.5%.

Take `CC(=O)Oc1c(C)c(C)c2c(c1C)CCC(C)(CCCC(C)CCCC(C)CCCC(C)C)O2` (racemic) [DL-a-Tocopherol acetate]: the “HMGB1-induced TNF-alpha production” value under setting [1] was 74.7%.

As for `CO/N=C(\C(=O)N[C@@H]1C(=O)N2C(C(=O)OCOC(=O)C(C)(C)C)=C(/C=C\c3scnc3C)CS[C@H]12)c1csc(N)n1`, for the setting “compound concentration: 3 uM”, the “HMGB1-induced TNF-alpha production” value is 78.6%.

As for `CN(N=O)C(=O)N[C@H]1C(O)O[C@H](CO)[C@@H](O)[C@@H]1O` (mixture of isomers), for the setting “compound concentration: 3 uM”, the “HMGB1-induced TNF-alpha production” value was determined as 91.3 ± 1.6%.

`Cc1onc(-c2ccccc2)c1-c1ccc(S(N)(=O)=O)cc1`: under “compound concentration: 3 uM”, the “HMGB1-induced TNF-alpha production” value stood at 84%.

Regarding `COc1ccc(CCN(C)CCCC(C#N)(c2ccc(OC)c(OC)c2)C(C)C)cc1OC` (stereo not given), the “HMGB1-induced TNF-alpha production” value under setting [1] came out at 66.1%.

As to `COc1ccc(CCN(C)CCCC(C#N)(c2ccc(OC)c(OC)c2)C(C)C)cc1OC` (stereo not given) [Verapamil hydrochloride], the “HMGB1-induced TNF-alpha production” value (compound concentration: 3 uM) is 66.2%.

Take `COc1ccc(CCN(C)CCCC(C#N)(c2ccc(OC)c(OC)c2)C(C)C)cc1OC` (stereo not given) [Verapamil]: the “HMGB1-induced TNF-alpha production” value (compound concentration: 3 uM) was 98.3%.

Regarding `CCCc1cc(=O)[nH]c(=S)[nH]1`, the “HMGB1-induced TNF-alpha production” value (compound concentration: 3 uM) worked out at 87.6%.

Turning to `CCCc1cc(=O)[nH]c(=S)[nH]1` [Propylthiouracil], the “HMGB1-induced TNF-alpha production” value (compound concentration: 3 uM) was 59.1%.

As for `C[N+]1(CCCCC[N+]2(C)CCCC2)CCCC1` [Pentolinium di[L(+)-tartrate]], the “HMGB1-induced TNF-alpha production” value (compound concentration: 3 uM) amounted to 107%.

For the compound `C[N+]1(CCCCC[N+]2(C)CCCC2)CCCC1` [Pentolinium bitartrate], the “HMGB1-induced TNF-alpha production” value (compound concentration: 3 uM) came out at 88.9%.

As for `O=C(Nc1ccccc1)c1cc([N+](=O)[O-])ccc1Cl`, the “HMGB1-induced TNF-alpha production” value (compound concentration: 3 uM) worked out at 98%.
